For this assay, the system named is BDF1 mice, B16 melanoma ip, median survival T/C. Description: NCI In Vivo Anticancer Drug Screen. Data for tumor model B16 Melanoma (intraperitoneal) in B6D2F1 (BDF1) mice. Particulars: T/C endpoint: median survival time, schedule: Q01DX009 (ip), higher T/C = longer survival. A digest of the protocol:
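In this screen, activity was judged from survival or tumor size in treated versus vehicle-treated tumor-bearing mice, reported as T/C.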

The mark [1] stands for this setting: dose: 100.0 mg/kg/injection, vehicle: saline with Tween-80.
Where [2] appears, read: dose: 200.0 mg/kg/injection, vehicle: saline with Tween-80.
Setting [3] is: dose: 100.0 mg/kg/injection, vehicle: Klucel (hydroxypropylcellulose) (HPC).
Where [4] appears, read: dose: 200.0 mg/kg/injection, vehicle: Klucel (hydroxypropylcellulose) (HPC).
The mark [5] stands for this setting: dose: 400.0 mg/kg/injection, vehicle: saline with Tween-80.
[6] abbreviates: dose: 12.5 mg/kg/injection, vehicle: Klucel (hydroxypropylcellulose) (HPC).
Where [7] appears, read: dose: 400.0 mg/kg/injection, vehicle: Klucel (hydroxypropylcellulose) (HPC).

SMILES strings stand for the structures. The list shows only some results of the screen, not a fair sample: it is rich in T/C values a quarter to a half above the control, in often repeated tests (any T/C) and in doses without a T/C. Other doses and runs of a compound stand elsewhere. T/C is the treated group as % of the vehicle group. Some doses have a count of surviving animals in place of a T/C: the source files T/C as zero there, which appears to mark a toxic dose or a test without result, not a measured value. Some doses without a T/C left all or most animals alive at the check, yet need not have been tolerated: the source hardly ever lists a survival T/C far under the control, and the zero likely stands for such cases as well. Survivors were counted at the toxicity check, usually on the fifth day, unless a day is given; later deaths do not show. Schedule codes are those of the source, taken here to give the interval after Q, in days (D) or hours (H), and the number of doses after X. Where survival is the endpoint, this PubChem deposit counts one and a half times the control or more as active, and values a quarter to a half above the control carry no call in these data; other NCI protocols may use other cut-offs. Some doses were run more than once; their values stand side by side, smallest first. Some T/C values are followed by the survivors on the day toxicity was checked, most often the fifth; where none is given, no animal had died by that day. Peptide text beside a SMILES is read from it. * marks the point of attachment. Cbz = O=C(OCc1ccccc1)*

Consider `CC(Br)C(=O)NCC(=O)O` (stereo not drawn), for which the survivor count is 10 of 10 under setting [1] and 10 of 10 under setting [2].

Consider `Cc1ccc(S(=O)(=O)Cl)cc1Cl`, for which, under setting [2], the survivor count is listed as 10 of 10.

For the compound `Cc1c([C@H](C)[C@@H]2NC[C@@H](C)C[C@H]2O)ccc2c1C[C@H]1[C@H]2CC=C2C[C@@H](O)CC[C@@]21C`, the survivor count is on record as 6 of 6 (dose: 6.0 mg/kg/injection, vehicle: saline) and 0 of 6 (dose: 12.0 mg/kg/injection, vehicle: saline).

`COc1cc(/C=C/[N+](=O)[O-])c([N+](=O)[O-])cc1OC`: the survivor count was 0 of 10 (dose: 50.0 mg/kg/injection, vehicle: Klucel (hydroxypropylcellulose) (HPC)); 0 of 10 under setting [3]; 0 of 10 under setting [4].

For the compound `CC(=O)C1=C(O)C2C3c4c[nH]c5cccc(c45)CC3C(C)(C)N2C1=O` (stereo not drawn), the T/C (dose: 1.0 mg/kg/injection, vehicle: saline) was 126 % of control.

Take `CCCCn1cnc2c(SC)ncnc21`: the survivor count under setting [2] is reported as 2 of 10.

In the case of `CN(C)C(=O)C1(c2ccc(Cl)cc2)CCN(CCCC(=O)c2ccc(F)cc2)CC1`, the survivor count runs as follows: under setting [3], 6 of 10; under setting [4], 3 of 10.

With `Nc1ncnc2c1cnn2C1OC(CO)C(O)C1O` (stereo not drawn), the survivor count (dose: 50.0 mg/kg/injection, vehicle: saline with Tween-80) is listed as 9 of 10.

With `O=C(NC(Cc1ccccc1)C(=O)NC(Cc1ccc(O)cc1)C(=O)O)OCc1ccccc1` (stereo not drawn) (Cbz-Phe-Tyr-OH; configuration not given here), the survivor count under setting [2] is recorded as 10 of 10 and the survivor count under setting [5] is given as 10 of 10.

Consider `Nc1nc(N)n2c(N)nnc2n1`, for which the survivor count (dose: 400.0 mg/kg/injection, vehicle: saline) is listed as 10 of 10.

Regarding `CC(C)(SCCc1ccc([N+](=O)[O-])cc1)C(N)C(=O)O` (stereo not drawn), the survivor count under setting [6] is 10 of 10 and the survivor count (dose: 25.0 mg/kg/injection, vehicle: Klucel (hydroxypropylcellulose) (HPC)) is 10 of 10.

As to `CC(C)NC(=O)OCc1c(COC(=O)NC(C)C)c(-c2ccc(Cl)c(Cl)c2)n2c1CCC2`, the T/C (dose: 2.34 mg/kg/injection, vehicle: saline with Tween-80) was 145 % of control; the T/C (dose: 4.69 mg/kg/injection, vehicle: other) was 140 % of control; the T/C (dose: 5.18 mg/kg/injection, vehicle: distilled water + Tween-80) is 129 % of control [9 of 10 alive]; the T/C (dose: 6.25 mg/kg/injection, vehicle: distilled water + Tween-80) is 146 % of control [9 of 10 alive]; the T/C (dose: 8.64 mg/kg/injection, vehicle: distilled water + Tween-80) is 148 % of control; the T/C (dose: 24.0 mg/kg/injection, vehicle: distilled water + Tween-80) is 148 % of control. Also, the survivor count is listed as 10 of 10 (dose: 37.5 mg/kg/injection, vehicle: other) and 9 of 10 (dose: 75.0 mg/kg/injection, vehicle: other).

With `COC(=O)C1=C(C)NC(=O)NC1c1ccc(N(CCCl)CCCl)c(OC)c1` (stereo not drawn), the T/C (dose: 1.56 mg/kg/injection, vehicle: saline with Tween-80) was 135 % of control. The survivor count reads like this: (dose: 6.25 mg/kg/injection, vehicle: Klucel (hydroxypropylcellulose) (HPC)) 10 of 10; under setting [6], 7 of 10; (dose: 12.5 mg/kg/injection, vehicle: saline with Tween-80) 9 of 10; (dose: 25.0 mg/kg/injection, vehicle: saline with Tween-80) 8 of 10.

With `COc1c(Cl)c2c(c(OC)c1OC)-c1ccc(OC)c(=O)cc1C(NC(C)=O)CC2` (stereo not drawn), the T/C by setting is: (dose: 0.38 mg/kg/injection, vehicle: Klucel (hydroxypropylcellulose) (HPC)) 127 % of control; (dose: 0.75 mg/kg/injection, vehicle: Klucel (hydroxypropylcellulose) (HPC)) 126 % of control; (dose: 1.5 mg/kg/injection, vehicle: Klucel (hydroxypropylcellulose) (HPC)) 125 and 142 % of control. The survivor count (dose: 3.0 mg/kg/injection, vehicle: Klucel (hydroxypropylcellulose) (HPC)) is given as 10 of 10 and the survivor count (dose: 6.0 mg/kg/injection, vehicle: Klucel (hydroxypropylcellulose) (HPC)) was 10 of 10.

As to `Cc1ccc(S(=O)(=O)NC(CSCc2ccccc2)C(=O)O)cc1` (stereo not drawn), under setting [2], the survivor count is recorded as 10 of 10.

As to `COc1ccc([I+]c2ccc(OC)cc2)cc1`, under “dose: 6.0 mg/kg/injection, vehicle: saline with Tween-80”, the survivor count was 6 of 6.

Consider `C[C@]12CC[C@H](O)C[C@@H]1CC[C@@H]1[C@@H]2C(=O)C[C@@]2(C)[C@H]1CC[C@]2(O)C(=O)CBr`, for which, under setting [4], the survivor count is on record as 4 of 6.

For the compound `Cc1cc(N=NC(N)=S)c2ccccc2c1O`, the survivor count reads like this: under setting [1], 10 of 10; under setting [2], 10 of 10; under setting [5], 10 of 10.

For `O=C(O)C1(NO)CCCC1`, under “dose: 50.0 mg/kg/injection, vehicle: saline”, the T/C is 125 % of control. The survivor count (dose: 200.0 mg/kg/injection, vehicle: saline) was 10 of 10.

In the case of `Cn1c(N)c(N=O)c(=O)n(C)c1=O`, the survivor count (dose: 720.0 mg/kg/injection, vehicle: saline with Tween-80) was 5 of 10.

As for `C#CC(C)OCC1CNC(=S)O1` (stereo not drawn), under setting [2], the survivor count is 10 of 10.

As for `CCC(c1ccc(OC)cc1)C(CC)c1ccc(O)c(CN2CCN(C)CC2)c1` (stereo not drawn), where the note is “dose: 100.0 mg/kg/injection, vehicle: saline”, the survivor count is on record as 10 of 10.

Consider `O=C(O)c1ccccc1C(=O)Nc1ccc(Cl)cc1`, for which the survivor count under setting [5] was 9 of 10.

For `O=C1NC(=O)/C(=C/c2ccccc2)N1`, the survivor count under setting [7] was 6 of 6.

For the compound `CCOc1ccc(NC(=O)Nc2ccccc2OC)cc1`, the survivor count was 10 of 10 under setting [3], 10 of 10 under setting [4] and 10 of 10 under setting [7].

With `c1cc(NC2CCCCC2)ccc1CN1CCOCC1`, the survivor count (dose: 400.0 mg/kg/injection, vehicle: saline + Tween-80 + alcohol) is listed as 10 of 10.

(Values after PubChem BioAssay AID192 (DTP/NCI, 2004).)
